According to PubChem BioAssay AID493014 (National Center for Advancing Translational Sciences (NCATS), 2011):
This is one part of the list. The main result of the screen is listed elsewhere. These columns were measured beside it and carry no call. Most of these compounds were active or inconclusive in the main read-out, so they are no random draw. Potencies come from curve fits of mixed quality, noted in brackets.

Assay: qHTS Assay to Find Inhibitors of Chronic Active B-Cell Receptor Signaling
Settings: ABC-DLBCL IkBa-CBG/CBR reporter, luminescence ratio (green luciferase fused to IkBa over red control in TMD8 lymphoma cells), 4 h
Summary of the method: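 TMD8 human ABC-DLBCL cells with doxycycline-inducible IκBα–green luciferase fusion and unfused red luciferase, in 0.5% FBS medium; compounds up to 46 uM, 4 h at 37C. Green/red luminescence ratio, filter-overlap corrected, fitted to concentration-response curves.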

[1] = measured here: CBR red luminescence, cell number
[2] = measured here: IkBa-CBG green luminescence

| Compound | AC50 [1] | AC50 [2] |
| --- | --- | --- |
| COc1ccc(NC(=O)C(=O)c2cn(CC(=O)N3CCCC3)c3ccccc23)cc1OC | 3.16 µM [falling, full curve, poor fit] |  |
| O=C(OCC(=O)N1CCN(c2ccccc2)CC1)c1ccccc1[N+](=O)[O-] | 2.59 µM [rising, full curve, poor fit] |  |
| CN(c1ccccc1)c1nc(N)c(C#N)c(CC#N)c1C#N | 29.1 µM [falling, single point] |  |
| N#CCn1c2ccccc2c2nc3ccccc3nc21 | 0.562 µM [falling, full curve, poor fit] | 0.794 µM [rising, full curve] |
| Cn1c(Cn2nnc(-c3ccccc3)n2)nnc1SCc1ccccc1Cl | 23.1 µM [falling, partial curve] | 23.1 µM [rising, partial curve, poor fit] |
| Nc1ncnc(NC2CCS(=O)(=O)C2)c1[N+](=O)[O-] (configuration not stated) | 1.26 µM [falling, partial curve, poor fit] |  |
| CCOC(=O)/C(C#N)=C/c1ccc(OCC(=O)Nc2ccccc2)c(OC)c1 | 13 µM [falling, partial curve] |  |
| CC(C(=O)NC(=O)NC1CCCCC1)N1CCN(c2ccccn2)CC1 (configuration not stated) | 5.01 µM [falling, partial curve, poor fit] |  |
| CCOc1ccccc1NC(=O)C1CCN(S(=O)(=O)c2c(C)nn(C)c2C)CC1 | 0.82 µM [rising, full curve, poor fit] |  |
| COc1cc2nc(CN3CCN(S(=O)(=O)c4cc(C)ccc4C)CC3)[nH]c(=O)c2cc1OC | 7.31 µM [rising, partial curve, poor fit] |  |
| Cc1nn(CCC(=O)NNC(=S)Nc2cccc(Cl)c2)c(C)c1[N+](=O)[O-] | 9.2 µM [rising, single point] |  |
| COc1ccc(-c2nnc(SCC(=O)NNC(=O)Cc3ccccc3)n2C)cc1OC | 10.3 µM [rising, partial curve] |  |
| Cc1nc2c(ccc3nc(NC(=O)c4ccc5c(c4)OCCO5)sc32)s1 | 6.31 µM [falling, partial curve, poor fit] |  |
| CCOC(=O)c1ccc(NC(=O)COc2ccccc2CNC2CCCC2)cc1 | 15.8 µM [falling, single point] |  |
| CC(NC(=O)C12CC3CC(CC(O)(C3)C1)C2)c1ccccc1 (configuration not stated) | 17.8 µM [rising, partial curve, poor fit] |  |
| COc1ccc(CCNC(=O)c2cc(-c3ccc(C)c(C)c3)nc3ccccc23)cc1OC | 0.562 µM [rising, full curve, poor fit] |  |
| COc1ccc(CNS(=O)(=O)CCNC(=O)c2ccc(OC)cc2)cc1 | 16.4 µM [falling, single point] |  |
| CCOC(=O)CC1=CC(=O)Nc2ccccc2N1 | 35.5 µM [rising, partial curve, poor fit] |  |
| O=S(=O)(Nc1ccc(N2CCCCC2)cc1)c1cccc2cccnc12 | 29.1 µM [rising, single point] |  |
| COc1ccccc1C(=O)N/C(=C/c1ccco1)C(=O)Nc1ccc(C(=O)O)cc1 | 11.2 µM [falling, partial curve, poor fit] |  |

Two entries drawn at random from those above, as already listed:

| Compound | AC50 [1] | AC50 [2] |
| --- | --- | --- |
| CC(C(=O)NC(=O)NC1CCCCC1)N1CCN(c2ccccn2)CC1 (configuration not stated) | 5.01 µM [falling, partial curve, poor fit] |  |
| COc1ccc(CNS(=O)(=O)CCNC(=O)c2ccc(OC)cc2)cc1 | 16.4 µM [falling, single point] |  |

Continuation:

| Compound | AC50 [1] | AC50 [2] |
| --- | --- | --- |
| N#Cc1c(N)n[nH]c1CCCN | 29.1 µM [rising, single point] |  |
| Cc1oc2ccccc2c1CC(=O)NCCCN(C)C | 3.55 µM [rising, single point] |  |
| COc1ccc([C@H]2CC(=O)C=C(c3cc(Cl)ccc3C)C2)cc1 | 0.731 µM [rising, full curve, poor fit] |  |
| CN(C(=O)c1cccc(NC(=O)Cc2cccc([N+](=O)[O-])c2)c1)C1CCCC1 | 18.4 µM [falling, single point] |  |
| Cc1c(NC(=O)c2cnn3cccnc23)c(=O)n(-c2ccccc2)n1C | 0.411 µM [rising, full curve, poor fit] |  |
| COc1ccc(OC)c(NC(=O)C2CCN(Cc3cnn(-c4ccccc4)c3-n3cccc3)CC2)c1 | 5.17 µM [rising, full curve, poor fit] |  |
| Cc1ccccc1-n1cnnc1SCC(=O)N1CCN(c2ccccc2)CC1 | 18.4 µM [rising, single point] |  |
| COc1ccccc1N(CC(=O)NCc1ccccc1)C(=O)CCC(=O)Nc1cc(C)ccn1 | 6.51 µM [falling, partial curve] |  |
| Cc1nc(-c2ccccc2)sc1C1(C)CC(c2ccc(C#N)cc2)=NO1 (configuration not stated) | 20 µM [rising, partial curve, poor fit] |  |
| COc1ccc(NC(=O)C2CCCN(c3nc(C)cc(C)n3)C2)cc1 (configuration not stated) | 12.6 µM [rising, partial curve, poor fit] |  |
| COCCSc1ccccc1C(=O)Nc1nnc(COC)s1 | 18.4 µM [rising, single point] |  |
| N#Cc1ccc(C2N=C(c3ccccc3)NO2)cc1 (configuration not stated) | 14.1 µM [falling, single point] |  |
| COc1ccc(Nc2nc(NC(C)(C)C)nc(N3CCCC3)n2)c(OC)c1 | 23.1 µM [rising, partial curve] |  |
| COc1ccc(Cl)cc1C(=O)Nc1ccccc1N1CCN(C)CC1 | 23.1 µM [falling, single point] |  |
| Cc1ccc(-n2nnnc2CNC(=O)c2ccc([N+](=O)[O-])o2)cc1C | 20.6 µM [falling, partial curve, poor fit] |  |
| C#CCSc1nnc(-c2ccccc2)c(=O)[nH]1 | 8.2 µM [falling, partial curve] |  |
| CCOc1ccccc1NC(=O)CSc1nnc(-c2ccccn2)n1Cc1ccco1 | 35.5 µM [falling, single point] |  |
| CC(=O)N1CCN(CC(O)COc2ccc(S(=O)(=O)N3CCOCC3)cc2)CC1 (configuration not stated) | 18.4 µM [rising, partial curve, poor fit] |  |
| Nc1nnc(CSCc2ccc(F)cc2)s1 | 5.17 µM [rising, full curve, poor fit] |  |
| O=C(COC(=O)c1ccccc1NC(=O)c1ccccc1)c1cccc([N+](=O)[O-])c1 | 4.11 µM [falling, partial curve] |  |
